The target in this assay is T1, PsbS-TurboID-eGFP (Arabidopsis thaliana) (UniProt Q9XF91).
T1 sequence: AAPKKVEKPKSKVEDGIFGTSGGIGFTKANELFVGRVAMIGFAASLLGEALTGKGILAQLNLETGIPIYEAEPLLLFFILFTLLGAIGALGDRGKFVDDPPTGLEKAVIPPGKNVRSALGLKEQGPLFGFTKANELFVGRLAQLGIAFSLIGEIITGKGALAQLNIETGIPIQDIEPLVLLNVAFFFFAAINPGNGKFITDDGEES
Nature of the assay: proximity labelling; TurboID fused to PsbS in stable Arabidopsis seedlings (5-day old); 50 µM biotin, 3 h, 22°C, under high light (600 µmol m-2 s-1) or in the dark; streptavidin magnetic beads, LC-MS/MS, LFQ against the control PTP-TurboID-eGFP (log2 FC >= 1).

No constants are given. Whether binding was seen depends on the method and setting. In cells and extracts the contact can be indirect. A yes stands for co-enrichment or nearness to the bait. Other partners may have been found. Where a sequence is shown, tags or fusion partners need not be part of it.

B1: FtSH8 (enzyme, UniProt Q8W585 74-685)
chain: DEQGQGVSSSRMSYSRFLEYLDKGRVEKVDLYENGTIAIVEAVSPELGNRIQRVRVQLPGLSQELLQKLRAKNIDFAAHNAQEDQGSPILNLIGNLAFPVILIGGLFLLSRRSSGGMGGPGGPGFPLQIGQSKAKFQMEPNTGVTFDDVAGVDEAKQDFMEVVEFLKKPERFTAVGARIPKGVLLVGPPGTGKTLLAKAIAGEAGVPFFSISGSEFVEMFVGVGASRVRDLFKKAKENAPCIVFVDEIDAVGRQRGTGIGGGNDEREQTLNQLLTEMDGFEGNTGVIVVAATNRADILDSALLRPGRFDRQVSVDVPDVKGRTDILKVHSGNKKFESGVSLEVIAMRTPGFSGADLANLLNEAAILAGRRGKTAISSKEIDDSIDRIVAGMEGTVMTDGKSKSLVAYHEVGHAICGTLTPGHDAVQKVTLIPRGQARGLTWFIPSDDPTLISKQQLFARIVGGLGGRAAEEVIFGESEVTTGAVSDLQQITGLAKQMVTTFGMSEIGPWSLMDSSEQSDVIMRMMARNSMSEKLANDIDTAVKTLSDKAYEIALSQIRNNREAMDKIVEILLEKETMSGDEFRAILSEFTEIPPENRVASSTSTSTPTPASV
Regarding B1, the binding result was “binds”.

B2: HCF173 (protein, UniProt Q8W4D6 80-598)
chain: AKKLDVAPPSPQSPPSPPTLKLDDVNPVGLGRRSRQIFDEVWRKFSGLGQMSRTTRPDEQETLDSLLIREGPMCEFAVPGAQNVTVLVVGATSRIGRIVVRKLMLRGYTVKALVRKQDEEVMSMLPRSVDIVVGDVGEPSTLKSAVESCSKIIYCATARSTITADLTRVDHLGVYNLTKAFQDYNNRLAQLRAGKSSKSKLLLAKFKSAESLDGWEIRQGTYFQDTTASKYDGGMDAKFEFTETERAEFSGYVFTRGGYVELSKKLSLPLGTTLDRYEGLVLSVGGNGRSYVVILEAGPSSDMSQSKQYFARISTKAGFCRVRVPFSAFRPVNPEDPPLDPFLVHTLTIRFEPKRQRPVDGLAGAQQDLRSFSLVFEYIKALPAGQETDFILVSCTGSGVEANRREQVLKAKRAGEDSLRRSGLGYTIIRPGPLKEEPGGQRALIFDQGNRISQGISCADVADICVKALHDSTARNKSFDVCHEYVAEQGIELYELVAHLPDKANNYLTPALSVLEKNT
For B2, the binding result is “binds”.

The record behind these values is article PMC12864446.
